# Test results reported in PubChem BioAssay AID2685 (National Center for Advancing Translational Sciences (NCATS), 2010).
# Out of some 320,000 compounds screened, about 2,100 (0.66%) were called active. Inconclusive results, whose numbers are uncertain, are shown with a selection of clear calls. Calls follow the shape of the dose curve; as a rule, active = well fitted inhibition curve with a large enough effect in the signal ratio, with a control signal flat (not every such curve was filed as active); inconclusive = small, poorly fitted or top-dose-only effect, or effect the other way, or a change in a side signal; inactive = flat fitted curve, though single readings scatter; the % refers to the signal ratio. Where the call is inconclusive, the potency comes from a doubtful curve fit.
# Test: qHTS Assay for Lipid Storage Modulators in Drosophila S3 Cells
# Conditions: BODIPY lipid droplet fluorescence, 18-24 h, cells fed with added oleic acid; lipid storage change, negative = inhibition: at 46.1 µM (top of the series) unless noted
# Summary of the method: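 Laser-scanning cytometry quantifies lipid droplet accumulation (500–530 nm total intensity; droplet/cell object ratio) in oleic acid-fed (400 uM added) Drosophila S3 cells treated with a concentration series. 20 uM Triacsin C defined 100% inhibition.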
# % is scaled to controls: 0 for no effect and ±100 for the full control effect; potency is read from the fitted curve at half-maximal effect.
SMILES,Potency,"lipid storage change, negative = inhibition"
Cc1ccc(CNC(=O)CCC2CCCN(Cc3cc4ccccc4o3)C2)o1 (stereo unspecified),"inconclusive: 29.1 µM [activator, single point]",–
O=C1CCCCC1C(O)c1ccc(Cl)cc1 (stereo unspecified),–,inconclusive: 13.5%
COc1ccc(OC)c(Nc2ncnc3ccccc23)c1,–,inconclusive: 9.53%
CCCn1c(SCC(=O)Nc2ccc3c(c2)CCC3)n[nH]c1=O,–,inconclusive: 22.1%
NC(=O)N/N=C\c1cc(Br)ccc1O,"inconclusive: 2.91 µM [falling, partial curve, poor fit]",–
COc1ccc(-c2cc(C(=O)N/N=C/c3ccc(OC)c(COCC(F)(F)C(F)F)c3)c3ccccc3n2)c(OC)c1,–,inconclusive: 12.8%
O=C(CN1C(=O)NC2(CCCCC2)C1=O)N1CCN(S(=O)(=O)c2cccc([N+](=O)[O-])c2)CC1,"inconclusive: 1.84 µM [activator, partial curve]",–
O=C(NCC(=O)N1CCN(c2ccccc2O)CC1)C1CCCCC1,–,inconclusive
CCOC(=O)C1=NN(c2ccccc2C)C2=NC(C)=C(C(=O)OC)C(c3cccs3)N12 (stereo unspecified),–,inconclusive: -17.4%
O=C(CCNS(=O)(=O)c1ccc(OC(F)(F)F)cc1)NCCc1c[nH]c2ccccc12,"inconclusive: 5.17 µM [activator, partial curve, poor fit]",–
COc1cc(Br)c(-c2sc(Nc3ccccc3)n[n+]2-c2ccccc2)cc1OC,"inconclusive: 29.1 µM [falling, single point]",–
Oc1cccc(CCC2CCCCN2Cc2cn[nH]c2-c2ccc3c(c2)OCO3)c1 (stereo unspecified),–,inactive
CCCOc1ccc(C(=O)CCC(=O)NNC(=O)c2cccs2)cc1,–,inconclusive: 9.65%
Cc1c(CN2CCCC(C(=O)c3cccc(OC(C)C)c3)C2)c(=O)n(-c2ccccc2)n1C (stereo unspecified),–,inactive
Cc1nccn1CC(=O)N/N=C/c1cccs1,"inconclusive: 29.1 µM [activator, single point]",–
COc1cccc(-c2nc(CCl)cs2)c1,–,inconclusive: 1.2%
O=C(c1ccccc1)N1CCN(S(=O)(=O)N2CCCCC2)CC1,–,inconclusive: -42.3%
CCOc1cccc(-c2nnc3sc(COc4ccc(C)cc4)nn23)c1,–,inconclusive: -31.7%
COc1ccc(NC2=NC(C)(CO)CS2)cc1 (stereo unspecified),–,inconclusive: -12.6%
CC1CCC(NC(=O)c2ccc3nc[nH]c3c2)CC1 (stereo unspecified),"inconclusive: 6.51 µM [falling, single point]",–
CC(C)CNC(=O)[C@H](Cc1ccccc1)NC(=O)c1cccs1,–,inconclusive: 53.6%
Cc1ccc(CCN2C(=O)c3ccccc3C2C(=O)NCc2cccnc2)cc1 (stereo unspecified),–,inconclusive: -6.82%
O=C(COC(=O)/C(=C/c1cccs1)c1cccs1)NC(c1ccccc1)c1ccccc1,"inconclusive: 29.1 µM [falling, single point]",–
COC(=O)c1ccc(C2/C(=C(/O)c3ccc4c(c3)CC(C)O4)C(=O)C(=O)N2Cc2cccnc2)cc1 (stereo unspecified),–,inconclusive: 69.8%
CC(C)(Cc1cccc(CC(C)(C)C(=O)O)c1)C(=O)O,–,inconclusive: 19.3%
c1ccc(C2=Nn3c(nnc3-c3cccnc3)SC2)cc1,–,inconclusive: -3.49%

# Individual results from the entries so far:
# `COc1ccc(NC2=NC(C)(CO)CS2)cc1` (stereo unspecified) | lipid storage change, negative = inhibition: inconclusive: -12.6%
# `O=C(CCNS(=O)(=O)c1ccc(OC(F)(F)F)cc1)NCCc1c[nH]c2ccccc12` | Potency: inconclusive: 5.17 µM [activator, partial curve, poor fit]

# Carrying on:

SMILES,Potency,"lipid storage change, negative = inhibition"
CN(CC(=O)Nc1ccc(F)cc1)CC(=O)N1CCc2ccccc21,–,inconclusive
COc1ccccc1N1CCN(Cc2ccc(C(=O)O)cc2)CC1,–,inconclusive: 7.84%
O=C(O)CC/C(=N\NC(=O)c1ccccc1)c1cccs1,"inconclusive: 6.51 µM [cytotoxic, single point]",–
O=C(CCNC(=O)c1ccco1)Nc1nc2ccccc2s1,–,inconclusive
Cc1ccc(Oc2nc3c(c(=O)n(C)c(=O)n3C)n2C)cc1C,–,inconclusive: -24.9%
FC(F)(F)c1cccc(NC(=S)NCc2ccccn2)c1,–,inconclusive: 20.5%
Cn1nc(-c2ccccc2)cc1NS(=O)(=O)c1ccc(C#N)cc1,–,inconclusive: 12.3%
CCOc1ccc(S(=O)(=O)N2CCC(C(=O)N3CCN(c4ccccc4F)CC3)CC2)cc1C,–,inconclusive: -37%
COc1ccc(C2(CNC(=O)c3ccc(C)cc3)CCOCC2)cc1,–,inconclusive: 120%
CC1CCN(C(=O)c2ccc(NS(=O)(=O)c3ccc4[nH]c(=O)[nH]c4c3)cc2)CC1,–,inconclusive: -10.7%
CN(Cc1ccc(Cl)cc1Cl)C(=O)CNC(=O)c1ccc2c(c1)OCO2,–,inconclusive: 9.29%
Cc1cc2c(=O)n(C)c(SCC(=O)Nc3cccc(F)c3)nc2s1,"inconclusive: 29.1 µM [activator, single point]",–
Cc1oc(-c2ccccc2)nc1C(=O)OCC(=O)NCc1ccccc1,–,inconclusive: 17.5%
CC(C)C[C@@H](CSc1ccc(Br)cc1)N1CCN(C)CCC1=O,–,inactive
COc1ccc(N2CCN(C(=O)c3ccccc3Br)CC2)c([N+](=O)[O-])c1,–,inconclusive: 20.9%
O=Cc1c[nH]c2ccc(C(=O)c3ccccc3)cc12,"inconclusive: 0.58 µM [activator, single point]",–
COc1ccccc1NC(=O)c1ccc(CSc2ccccc2)o1,"inconclusive: 32.6 µM [falling, single point]",–
Cn1c(=O)c(Sc2ccccc2)c(O)c2ccccc21,–,inconclusive: 7.26%
CCc1cccc2sc(N3CCN(C(=O)c4ccc([N+](=O)[O-])o4)CC3)nc12,"inconclusive: 1.46 µM [falling, partial curve, poor fit]",–
CCOC(=O)N1CCN(Cc2nc3c(c(=O)n(C)c(=O)n3C)n2Cc2cccc3ccccc23)CC1,–,inconclusive: 3.21%
O=C(c1ccc(Cl)c(S(=O)(=O)N2CCCCC2)c1)N1CCN(c2ccccc2)CC1,"inconclusive: 29.1 µM [falling, single point]",–
O=C(c1cc2cc(F)ccc2[nH]1)N1CCN(C(=O)c2ccco2)CC1,–,inconclusive: 63.3%
CN(C)S(=O)(=O)c1ccc(N2CCCC2)c(C(=O)Nc2nc3c(ccc4ccccc43)s2)c1,–,inconclusive: -41.7%
CC(NS(=O)(=O)c1cccc(S(=O)(=O)c2ccccc2)c1)C(=O)O (stereo unspecified),"inconclusive: 0.517 µM [falling, full curve]",–
COc1ccc(Cl)c2sc(N3CCN(C(=O)C4=COCCO4)CC3)nc12,–,inconclusive: 6.71%
Cc1cccc(C(=O)OCC(=O)NN2C(=O)NC3(CCC(C)CC3)C2=O)c1O (stereo unspecified),–,inconclusive: -18.7%

SMILES,Potency,"lipid storage change, negative = inhibition"
O=C(NCCCN1CCOCC1)c1ccc(NS(=O)(=O)c2cccc([N+](=O)[O-])c2)cc1,–,inconclusive: -12.4%
O=C(NCCc1ccccc1)C1CCN(C(=O)c2ccc([N+](=O)[O-])cc2)CC1,–,inconclusive: 0.49%
O=C(c1ccco1)N1CCCC(c2nc3c(nnn3Cc3ccc(F)cc3)c(=O)[nH]2)C1 (stereo unspecified),–,inconclusive: -16.4%
Fc1ccc(Nc2ccc3ccccc3n2)c(F)c1,–,inconclusive: 32.7%
CC(Oc1ccc(F)cc1)C(=O)Nc1sc2c(c1C(=O)NCc1cccnc1)CCCC2 (stereo unspecified),"inconclusive: 29.1 µM [falling, single point]",–
CCCNC(=O)CN1C(=O)NC(CC)(c2ccc(F)cc2)C1=O (stereo unspecified),"inconclusive: 0.651 µM [activator, single point]",–
CCOC(=O)N1CCN(C(=O)C(=O)c2cn(CC(=O)N3CCCCCC3)c3ccccc23)CC1,"inconclusive: 23.1 µM [falling, partial curve, poor fit]",–
CCn1c(SCC(=O)NC2CCCCC2)nnc1-c1cccnc1,"inconclusive: 29.1 µM [activator, single point]",–
CCN1C(=O)[C@H]2[C@@H](c3ccc(C)cc3)N3C(=O)N(c4cccc(Br)c4)C(=O)[C@@]3(CC)[C@H]2C1=O,–,inconclusive: -9.23%
COc1ccc(C)cc1C1=Nc2ccccc2C1(C)C,–,inconclusive: 19.1%
N#Cc1ccc(C(=O)Nc2ccc([N+](=O)[O-])cc2)c(F)c1,–,inconclusive: -28.2%
Cc1ccccc1C(=O)NCCNc1ccc([N+](=O)[O-])cc1,–,inconclusive: 7.4%
O=C1C=C(c2cccc(Cl)c2)C[C@@H](c2ccc(F)cc2)C1,"inconclusive: 16.4 µM [activator, partial curve, poor fit]",–
Cc1nc(N)sc1N=Nc1c(C)n(C)n(-c2ccccc2)c1=O,–,inconclusive: 23.4%
OC(C#CCN1CCCCC1)(c1ccccc1)c1ccccc1,–,inconclusive: 36.4%
CCN1C(=O)c2ccccc2S(=O)c2ccc(C(=O)NCc3ccc(OC)cc3)cc21 (stereo unspecified),–,inconclusive: -45.7%
CC(/C=N/NC(=O)c1cc(-c2ccncc2)nc2ccccc12)=C\c1ccco1,–,inconclusive: 205%
COCCNC(=O)c1cc(-c2ccc3c(c2)OCO3)on1,"inconclusive: 1.84 µM [activator, partial curve]",–
CCNc1nc(NCC)nc(SCCOC(=O)COc2ccc(Cl)cc2Cl)n1,–,inconclusive: 11.2%
[O-][n+]1onc2c1CCC1N(O)C(c3ccccc3)CC21O (stereo unspecified),"inconclusive: 0.103 µM [falling, full curve, poor fit]",–
CCCOC(=O)C(C)n1cnc2sc(C)c(C)c2c1=O (stereo unspecified),"inconclusive: 2.06 µM [rising, partial curve]",–
COc1cccc(C(=O)Nc2ccccc2C(=O)N2CCCC2)c1,–,inconclusive: -1.4%
CC1CC(C)CN(CCCNC(=O)c2cn(C)c3ccc(S(=O)(=O)N4CCCC4)cc3c2=O)C1 (stereo unspecified),–,inconclusive: -5.65%
Cc1cc(C)c2c(n1)nn1c(NCCN3CCOCC3)cc(C)nc21,–,inconclusive: 23.4%

# Looked up by structure from the list above:
SMILES,Potency,"lipid storage change, negative = inhibition"
CCn1c(SCC(=O)NC2CCCCC2)nnc1-c1cccnc1,"inconclusive: 29.1 µM [activator, single point]",–
[O-][n+]1onc2c1CCC1N(O)C(c3ccccc3)CC21O (stereo unspecified),"inconclusive: 0.103 µM [falling, full curve, poor fit]",–
